Assay results as given in patent US6562848B1, “Bis-amino acid sulfonamides as HIV protease inhibitors” (Bristol-Myers Squibb Company, priority 2001, dated 2003).
In brackets after ≈: the same amount, converted by molar mass.

Test system: HIV-1 (RF)
Assay: HIV RNA assay: microplate based compound evaluation in HIV-1 infected MT-2 cells
Type: cell-based
Details: Human immunodeficiency virus 1, MT2, 72 h; HIV-1 (RF) infected MT-2 cells, 3 days of culture; value to which the virus inoculum was standardized; read-out: IC90 value (concentration of compound required to reduce the HIV RNA level by 90%)
Description: Plasmid pDAB 72 containing both gag and pol sequences of BH10 (bp 113-1816) cloned into PTZ 19R was prepared according to Erickson-Viitanen et al. AIDS Research and Human Retroviruses 1989, 5, 577. The plasmid was linearized with Bam HI prior to the generation of in vitro RNA transcripts using the Riboprobe Gemini system II kit (Promega) with T7 RNA polymerase. Synthesized RNA was purified by treatment with RNase free DNAse (Promega), phenol-chloroform extraction, and ethanol precipitation. RNA transcripts were dissolved in water, and stored at −70° C. The concentration of RNA was determined from the A260.
Biotinylated capture probes were purified by HPLC after synthesis on an Applied Biosystems (Foster City, Calif.) DNA synthesizer by addition of biotin to the 5′ terminal end of the oligonucleotide, using the biotin-phosphoramidite reagent of Cocuzza, Tet. Lett. 1989, 30, 6287. The gag biotinylated capture probe was complementary to nucleotides 889-912 of HXB2 and the pol biotinylated capture probe was complementary to nucleotides 2374-2395 of HXB2. […]
MT-2 and MT-4 cells were maintained in RPMI 1640 supplemented with 5% fetal calf serum (FCS) for MT-2 cells or 10% FCS for MT-4 cells, 2 mM L-glutamine and 50 μg/mL gentamycin, all from Gibco. […] Infectious titers of HIV-1 (RF) stocks were 1-3×10^7 PFU (plaque forming units)/mL as measured by plaque assay on MT-2 cells (see below). […]

Nc1ccn([C@H]2CC[C@@H](CO)O2)c(=O)n1 [ddC, dideoxycytidine]
IC90: 0.2 µg/mL (≈ 0.947 µM)
